Earlier results as cited in patent US9359395B2, “Prodrugs of steroidal CYP17 inhibitors/antiandrogens” (Tokai Pharmaceuticals, Inc., priority 2009, dated 2016).
Some of these results come from one statement about several compounds together.

Key:
[1] = system: LNCaP prostate cancer cells; conditions: DHT-stimulated LNCaP cells; read-out: IC50 (cell growth inhibition); cited from earlier work
[2] = system: LAPC4 prostate cancer cells; conditions: DHT-stimulated LAPC4 cells; read-out: IC50 (cell growth inhibition); cited from earlier work

In the case of C[C@]12CC[C@H](O)CC1=CCC1C2CC[C@]2(C)C(n3cnc4ccccc43)=CCC12 (stereo partly drawn) [Compound 5, 3-β-hydroxy-17-(1H-benzimidazole-1-yl)androsta-5,16-diene], the IC50 [1] is listed as < 10 µM and the IC50 [2] is listed as < 10 µM.
